Experimental data taken from patent US6900351B2, “Aminopolycarboxylates, process for producing the same and use thereof” (Tosoh Corporation, priority 2000, dated 2005).

Tested on: activated sludge
Experiment: Biodegradability test with activated sludge (modified MITI method, OECD Test Guideline 301C)

O=C([O-])CN(CCN(CC(=O)[O-])CC(=O)[O-])CC(=O)[O-].[Na+].[Na+].[Na+].[Na+] [tetrasodium ethylenediaminetetraacetate]
degradation in biodegradability test (in words) (as in Example 1: sample 30 mg/l, activated sludge 100 mg/l, 25° C., 2 weeks): scarcely degraded | degradation in biodegradability test (in words) (modified MITI method OECD 301C): scarcely degraded
